Variants at the floor of the assay are shown more often than the library holds them.
B1: tRNA (parent)
chain: GUUCCGUUGGCGUAAUGGUAACGCGUCUCCCUCCUAAGGAGAAGACUGCGGGUUCGAGUCCCGUACGGAACG

Variants of: B1
Test: yeast fitness relative to wild type (ratio to wild type); higher = fitter; tRNA-Arg(CCU), competitive growth, 37 C, YPD
Procedure, shortened: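 Genotype frequency changes were the basis for Darwinian fitness relative to wild type. The frequencies came from 100-nucleotide paired-end sequencing of gene amplicons from the start population and each end population of pooled yeast strains with tRNA-Arg(CCU) gene variants at the native locus. Competition ran in YPD at 37°C for 24 hours in six replicates, genotypes needed ≥ 100 starting reads, and estimates < 0.5 were set to 0.5.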

Row | Variant | yeast fitness
1 | G9C C34A G38A | ≤ 0.5
2 | G10A U26A C49G | ≤ 0.5
3 | U3G C11U G51C | ≤ 0.5
4 | C22U C55A C61G | ≤ 0.5
5 | C4G U32C A45U | 0.537
6 | G6C U8C A21C | ≤ 0.5
7 | A20C U53C A70C | ≤ 0.5
8 | U8C G9C G68A | ≤ 0.5
9 | C11G C27A C29U G58A | ≤ 0.5
10 | G12A A42U A57U | ≤ 0.5
11 | A15U A37G G51C C62G | ≤ 0.5
12 | U8C C22U G58C | ≤ 0.5
13 | A20G A40C A42U A43C G48A A70C | ≤ 0.5
14 | U7A G10A C49A | ≤ 0.5
15 | U19C C34U G44A | ≤ 0.5
16 | U16A U32C C61G A69C | ≤ 0.5
17 | U2A C30G C33A | ≤ 0.5
18 | A15C G39C A40C A45U | ≤ 0.5
19 | U32G U35A G38C G51C C66U | 0.579
20 | C4A A14U A20C U28G C31A | ≤ 0.5
21 | C31U A42G C62U A69C | 0.542
22 | C27U C30A G51A C62A G67A | ≤ 0.5
23 | U8C U19G C34U G52C | ≤ 0.5
24 | U19G A40G C55G A65C | ≤ 0.5

Row | Variant | yeast fitness
25 | C22U A37G A45U G52A C62G A70U | ≤ 0.5
26 | U7A U35G | ≤ 0.5
27 | A42C A57U C66U | ≤ 0.5
28 | U3G A21G C31G C33U A43U | ≤ 0.5
29 | G6C U8C G68C | ≤ 0.5
30 | C11G A36C A45G A57C C61G | ≤ 0.5
31 | G50A A65G | 1.03
32 | C24G C33U A37U | ≤ 0.5
33 | U2G C27G G67C | ≤ 0.5
34 | G23C C55G G58C | ≤ 0.5
35 | C4U C46A C49A | ≤ 0.5
36 | G12A C46U C62U | 0.732
37 | G18A C30G G38C | 0.529
38 | A20C C27G C49A C61U | ≤ 0.5
39 | C31U G41C A43C C60G G63A | ≤ 0.5
40 | A15C C31U C34G | ≤ 0.5
41 | U13C G51C G67C | ≤ 0.5
42 | C11U G23A C27U A40C C66U | ≤ 0.5
43 | C11A A21C A42C C61U | ≤ 0.5
44 | U28G A42C A57C | 0.627
45 | U8C U13G A69U | ≤ 0.5
46 | C5G C49G A65C | ≤ 0.5
47 | U2C U19C A37G C49A G63A | ≤ 0.5
48 | A21C C22G G38C A69U | ≤ 0.5

Row | Variant | yeast fitness
49 | G10C A42G | 0.57
50 | G38A A57U | 0.772
51 | G23A A43U G63C C66U | ≤ 0.5
52 | G12A G39U G48C | ≤ 0.5
53 | C29U U35A C61G | ≤ 0.5
54 | C11U C24U C29A C34U G38A C61U | ≤ 0.5
55 | U2G C33G A36U A57U | ≤ 0.5
56 | A40U U54A C55U | ≤ 0.5
57 | G6C C29G C61U | ≤ 0.5
58 | C11G C22G U26A C66U | ≤ 0.5
59 | U3A U8C U32C | ≤ 0.5
60 | U16A G18A C31U A65G | 0.548
61 | C27U C34U G44A A65G | ≤ 0.5
62 | G6C C24G C34U U53C C55G A69C | ≤ 0.5
63 | C22A G48A | 0.826
64 | A14C C34A A65U | ≤ 0.5
65 | U8C G10A G58C A69U | ≤ 0.5
66 | U16G G38C G39A U64C C66A | ≤ 0.5
67 | C24G A42C C66A | ≤ 0.5
68 | U26G A37G G51C | 0.801
69 | C11U G17C C62U A69U | 0.567
70 | G23C C30U C33A G39A | ≤ 0.5
71 | U28C U64C | 0.877
72 | C11G C22A C31A C61A | ≤ 0.5

Row | Variant | yeast fitness
73 | A14U U32C C49U A57C | ≤ 0.5
74 | U7C G12A U13G A14C U35C C49U | ≤ 0.5
75 | G6A U32C C46U G52A | ≤ 0.5
76 | C31G A43U C55A | ≤ 0.5
77 | G9C A20C A40U C61A G68A | ≤ 0.5
78 | U53G U54G C55A | ≤ 0.5
79 | U2A G6A C11G C46U A57C | ≤ 0.5
80 | G10C C11U C34A G44C U64A | ≤ 0.5
81 | U2C C11A C22G C46U U53G A57C | ≤ 0.5
82 | C24G U53C G58A | ≤ 0.5
83 | U35A A42G A43C C66U | ≤ 0.5
84 | G10C U26A C34G | ≤ 0.5
85 | U8A U26C U54C C55G C61A | ≤ 0.5
86 | C5G G10A C11G U16G C33G C66U | ≤ 0.5
87 | G12A G52A U59A A69C A70C | ≤ 0.5
88 | U3G C11G U13A C30G | ≤ 0.5
89 | C30G G52C C61A | ≤ 0.5
90 | C30U U32A A36U A37U C62U | ≤ 0.5
91 | C5A U16C C22U A65U | ≤ 0.5
92 | U3G C5U U26A G38A C62U A70U | ≤ 0.5
93 | U13A U19C A20U C29G C33G A37G C49U C66U | 0.601
94 | C24A A36G C55G | ≤ 0.5
95 | C4A U8C G18C C33U G48A | ≤ 0.5
96 | A15G U26G C30U U47G A57G A69U | ≤ 0.5

Row | Variant | yeast fitness
97 | U7C G17A U28C | ≤ 0.5
98 | C5A C49U | 0.848
99 | A14G C27A U59G | ≤ 0.5
100 | C11U A21U G41C | 0.603
101 | A37U A42G G51A | ≤ 0.5
102 | C4A A21C C22G | ≤ 0.5
103 | U3A G12A U19A C61A C66U A69C | ≤ 0.5
104 | C5G C33A A36C | ≤ 0.5
105 | U13C C49G C61G A70U | ≤ 0.5
106 | U53G A57C A70U | ≤ 0.5
107 | C5U U8C A21G G23A | ≤ 0.5
108 | C22A G23A C33U C34G | ≤ 0.5
109 | C24G A36G G56A G67A | ≤ 0.5
110 | G9A A36G C61U G63C | ≤ 0.5
111 | G6C C27U U28A U32A C34U A36C C55A | ≤ 0.5
112 | C4G A15U C29A C61U | ≤ 0.5
113 | U13A C29U C60G C62G A70C | ≤ 0.5
114 | G12A C29A C33A | ≤ 0.5
115 | U2A C5A A57C | ≤ 0.5
116 | G12A A14G A15G C27U G38A | ≤ 0.5
117 | G10C C29U A40U A65U | ≤ 0.5
118 | U7C C33G A40G | ≤ 0.5
119 | C22U C29A U32A C55G A65U G67A | ≤ 0.5
120 | C5A A14C G23A C24G A36U | ≤ 0.5

Row | Variant | yeast fitness
121 | C24A U26C U54A C60U A69C | 0.819
122 | C5A A21G C22G C27A C33U A40U C55G | ≤ 0.5
123 | A15G U26G C31G U32A | ≤ 0.5
124 | U7G A21U C29A C55A A69U | ≤ 0.5
125 | C11U U13G U19A C22G G25A C66U A70U | ≤ 0.5
126 | A14U G56C A57U C61A A70C | ≤ 0.5
127 | U35C A42G C62A | ≤ 0.5
128 | C5G A15C C29A | ≤ 0.5
129 | A15G C29G C33G | ≤ 0.5
130 | C4U U13A A14U C29U A37G C60U G68U | ≤ 0.5
131 | A15G C24U G56C | ≤ 0.5
132 | G12A A15G C60G | ≤ 0.5
133 | A14U C24U C33A A42C | ≤ 0.5
134 | G38A G67A | 0.881
135 | U8G C55U | 0.569
136 | U7C G10A G50C G68C | ≤ 0.5
137 | U16C U26A G38C | ≤ 0.5
138 | G6A C27A A42C C46U C62U | ≤ 0.5
139 | U28G A37G G50A A69C | ≤ 0.5
140 | A15G G51A U54C C55G | ≤ 0.5
141 | U8G A57G A65G | ≤ 0.5
142 | G17C A40G G41A G56C | ≤ 0.5
143 | A21U C62U C66G | ≤ 0.5
144 | G12A U16G U26A C34U G50A A69U | ≤ 0.5

Row | Variant | yeast fitness
145 | A14G C29G C31U | 0.6
146 | G10A A14U G52C C62A | ≤ 0.5
147 | G18A U28A A42G A45C A65G | ≤ 0.5
148 | C11U A43C G68A | 0.545
149 | C24A C61G | ≤ 0.5
150 | A14U C22G G23C U32C A40C C60U G68C | ≤ 0.5
151 | C22U C33G | 0.551
152 | C11G A15U C31U U47G G58C C62U | ≤ 0.5
153 | A15U A21G A43U | ≤ 0.5
154 | A21U C24G G52C | ≤ 0.5
155 | C4G A45G U54G | ≤ 0.5
156 | C4A A15C C27G A65G | ≤ 0.5
157 | U2G A40C A57G | ≤ 0.5
158 | G39A A70U | 0.915
159 | A45U G50A C55G A70U | ≤ 0.5
160 | U59A G68U A69U | ≤ 0.5
161 | A36C A42U A65U | 0.647
162 | U2G U13A C60U | 0.816
163 | A21G A37G | 0.692
164 | G12U G39A C66G | ≤ 0.5
165 | U26G C60G C61U | ≤ 0.5
166 | U7A U26C C34A C66A | ≤ 0.5
167 | U16C A40U C60A | ≤ 0.5
